Literature values in patent publication US20250281569A1, “COMPOSITIONS AND METHODS FOR TREATING NEUROENDOCRINE TUMORS” (CAMURUS AB, priority 2021, published 2025).
Some of these results come from one statement about several compounds together.

Test system: NET
Settings: above-standard doses: octreotide LAR up to 160 mg every 2 weeks or lanreotide up to 15 mg/day; cited from earlier work

lanreotide
patients with disease stabilization: 37 to 75%
